Laboratory results reported in patent publication US11993573B2, “Chromane-substituted, tetrahydroquinoline-substituted and thiochromane-substituted heteroarotinoids as anti-cancer agents” (THE BOARD OF REGENTS FOR OKLAHOMA STATE UNIVERSITY, priority 2018, dated 2024).
At least one read-out could not be matched to a standard name with certainty.

System: human ovarian cancer cell line A2780
Assay: Growth inhibition assay (CellTiter 96 Non-Rad Cell Proliferation Assay)
Assay type: cell-based
Settings: Table 1; maximal % growth inhibition, A2780, 72 h
Protocol: To illustrate the general activity of the compounds inhibiting growth of human […] ovarian cancer cells, selected compounds were synthesized and evaluated. The compounds were dissolved in DMSO at a concentration of 0.01 M. The human ovarian cancer cell line A2780 was plated in 96-well tissue culture dishes at a concentration of 3000 cells per well in RPMI medium supplemented with 10% fetal bovine serum and a mixture of antibiotics and antimycotics. The next day, the cultures were treated in triplicate with compound concentrations ranging from 2 μM to 8 μM increments. For compound 12, additional experiments were performed with concentrations of 10 μM and a series of two-fold dilutions to 156 nM. Control cultures were treated with DMSO solvent only. After 72 h of incubation, the […] 96® Non-Rad Cell Proliferation Assay (Promega) was used to quantify the remaining metabolically living cells. After subtracting blank values, the optical density (OD) readouts of the assay for the treated cultures were normalized with the average OD of the control cultures. For each compound, the experiment was repeated at least once, resulting in a minimum of 6 dose-response curves. For SHetA2, 24 response curves were available for statistical fitting parameters. […]

Compound: CCC1(CC)CC(C)(C)c2cc(NC(=O)Nc3ccc([N+](=O)[O-])cc3)ccc2O1 [Compound 6b, 1-(2,2-Diethyl-4,4-dimethylchroman-6-yl)-3-(4-nitrophenyl)urea]
- Efficacy: 93.2%

Compound: CCC1(CC)CC(C)(C)Oc2ccc(NC(=O)Nc3ccc([N+](=O)[O-])cc3)cc21 [Compound 7c, 1-(4,4-Diethyl-2,2-dimethylchroman-6-yl)-3-(4-nitrophenyl)urea]
- Efficacy: 93.66%
